Protein sequences, listed by entry. Tags and fused reporters are not part of them. Lines headed by an entry give the natural chain unless they say otherwise; changes in a name come on top.
UniProt P70182: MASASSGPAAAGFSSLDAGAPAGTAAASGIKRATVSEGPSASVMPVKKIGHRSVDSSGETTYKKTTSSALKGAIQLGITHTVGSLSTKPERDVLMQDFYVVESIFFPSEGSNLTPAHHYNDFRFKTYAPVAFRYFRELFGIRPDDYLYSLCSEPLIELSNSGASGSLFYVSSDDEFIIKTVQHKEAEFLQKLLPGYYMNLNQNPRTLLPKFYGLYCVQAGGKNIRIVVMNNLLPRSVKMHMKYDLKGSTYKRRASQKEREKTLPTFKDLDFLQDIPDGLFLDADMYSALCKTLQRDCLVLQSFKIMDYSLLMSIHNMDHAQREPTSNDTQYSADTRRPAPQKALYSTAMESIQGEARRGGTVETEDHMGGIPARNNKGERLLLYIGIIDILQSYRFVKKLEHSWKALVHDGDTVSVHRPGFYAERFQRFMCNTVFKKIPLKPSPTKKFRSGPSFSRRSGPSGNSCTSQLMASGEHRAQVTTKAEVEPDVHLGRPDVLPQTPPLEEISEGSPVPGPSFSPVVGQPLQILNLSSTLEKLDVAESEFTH
UniProt Q80SW1: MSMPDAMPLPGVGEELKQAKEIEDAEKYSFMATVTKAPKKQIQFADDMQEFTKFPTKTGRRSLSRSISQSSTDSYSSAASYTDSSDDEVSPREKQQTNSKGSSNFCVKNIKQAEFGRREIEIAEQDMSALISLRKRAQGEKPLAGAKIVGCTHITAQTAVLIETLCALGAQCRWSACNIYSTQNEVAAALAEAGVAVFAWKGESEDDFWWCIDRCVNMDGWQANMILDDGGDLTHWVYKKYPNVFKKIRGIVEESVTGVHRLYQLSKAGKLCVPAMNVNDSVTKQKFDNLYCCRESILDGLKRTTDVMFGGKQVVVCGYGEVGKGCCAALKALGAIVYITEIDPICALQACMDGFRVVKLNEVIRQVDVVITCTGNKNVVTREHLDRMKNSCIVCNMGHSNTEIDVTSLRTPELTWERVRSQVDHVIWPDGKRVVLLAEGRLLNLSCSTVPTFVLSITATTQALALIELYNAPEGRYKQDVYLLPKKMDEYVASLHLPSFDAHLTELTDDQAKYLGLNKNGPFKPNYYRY

In article PMC4624786:

Assays:
[1] = target: T1, myc-tagged phosphatidylinositol phosphate kinase type IIα (rat) (UniProt Q9R0I8); assay: co-IP; COS-7 cells co-transfected with HA-IRBIT and myc-PIPK constructs; lysis buffer 10 mM Hepes pH 7.4, 100 mM NaCl, 2 mM EDTA, 1% Nonidet P-40; precipitated with anti-HA or anti-myc antibody and protein G-Sepharose at 4°C; Western blot
T1 sequence: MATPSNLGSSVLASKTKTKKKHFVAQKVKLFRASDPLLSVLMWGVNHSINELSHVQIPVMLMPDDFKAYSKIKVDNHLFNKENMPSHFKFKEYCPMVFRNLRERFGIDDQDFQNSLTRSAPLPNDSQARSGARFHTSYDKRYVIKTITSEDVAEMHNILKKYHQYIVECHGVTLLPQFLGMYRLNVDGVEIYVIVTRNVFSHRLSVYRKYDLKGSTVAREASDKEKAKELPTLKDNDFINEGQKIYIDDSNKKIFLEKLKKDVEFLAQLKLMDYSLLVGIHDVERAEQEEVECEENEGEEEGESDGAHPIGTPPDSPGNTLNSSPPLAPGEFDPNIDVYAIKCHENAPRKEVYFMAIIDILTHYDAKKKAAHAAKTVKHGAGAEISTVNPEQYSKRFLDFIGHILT

[2] = target: myc-tagged phosphatidylinositol phosphate kinase type Iα (mouse) (UniProt P70182); assay: as above

Substance	binding [1]	binding [2]
HA-IRBIT site-directed mutant of Ser68 (from UniProt Q80SW1)	binds weakly	binds weakly
HA-IRBIT site-directed mutant of Ser70 (from UniProt Q80SW1)	binds	binds
HA-IRBIT site-directed mutant of Ser71 (from UniProt Q80SW1)	binds weakly	binds weakly
HA-IRBIT site-directed mutant of Ser74 (from UniProt Q80SW1)	binds	
HA-IRBIT site-directed mutant of Ser80 (from UniProt Q80SW1)	binds	binds
HA-IRBIT site-directed mutant of Thr82 (from UniProt Q80SW1)	binds	

The remaining lines, values ahead:

binding [1]	binding [2]	Substance
binds	binds	HA-IRBIT site-directed mutant of Ser66 (from UniProt Q80SW1)
	binds	HA-IRBIT site-directed mutant of Ser77 (from UniProt Q80SW1)
binds		HA-IRBIT site-directed mutant of Ser84 (from UniProt Q80SW1)

Results are given in words; binding and its absence hold for the method and conditions named. Binding seen in cells or lysates may run through a third protein. Binding can be weak; no strength is given. For some assays here: Sequences can lack the tags named with a protein.
